Results are given in words; binding and its absence hold for the method and conditions named. Binding seen in cells or lysates may run through a third protein. Some results given as binding are weak or reduced against the parent protein; the word gives no strength.
Tests used:
[1] = target: B7-1-3xFlag, podocyte-specific transgene (NPHS2 promoter) in B7-1 transgenic (Tg) mice (UniProt Q00609); assay: co-IP; kidney tissue lysates of 6-month-old WT or podocyte-specific B7-1 Tg mice; immunoprecipitated with antibody against B7-1, Hsp90ab1 or rabbit IgG; blotted for B7-1, Hsp90ab1 or LRP5
[2] = target: heat shock protein 90 alpha, class B member 1 (Hsp90ab1), endogenous (mouse (endogenous in MPC5 cells and mouse kidney)) (UniProt P11499); assay: as above
[3] = target: B7-1 (Flag-tagged, from the plasmid pFlag-B7-1), overexpressed in MPC5 mouse podocytes (UniProt Q00609); assay: co-IP; MPC5 cells transfected with B7-1 expression plasmid for 24 h; lysates immunoprecipitated overnight at 4 °C with antibody against B7-1, Hsp90ab1 or rabbit IgG and protein A/G plus agarose; blotted for B7-1, Hsp90ab1 or LRP5
[4] = target: heat shock protein 90 alpha, class B member 1 (Hsp90ab1), endogenous (mouse (endogenous in MPC5 cells and mouse kidney)) (UniProt P11499); assay: as above
[5] = target: HA tagged Hsp90ab1 with R168 mutated to alanine (▴3) (UniProt P11499); assay: co-IP; 293 T cells co-transfected with Flag tagged B7-1 and HA tagged Hsp90ab1 (wild type or point mutants) for 24 hours; whole cell lysates immunoprecipitated with HA-tag antibody, blotted with B7-1 or HA antibody
[6] = target: HA tagged Hsp90ab1 wildtype (Full) (UniProt P11499); assay: as above
[7] = target: HA tagged Hsp90ab1 with L65 mutated to alanine (▴1) (UniProt P11499); assay: as above
[8] = target: HA tagged Hsp90ab1 with D170 mutated to alanine (▴4) (UniProt P11499); assay: as above

Sequences of proteins named here, by UniProt entry; tags and fusion partners are left off. Residues count along the entry.
UniProt Q00609, residues 38-306: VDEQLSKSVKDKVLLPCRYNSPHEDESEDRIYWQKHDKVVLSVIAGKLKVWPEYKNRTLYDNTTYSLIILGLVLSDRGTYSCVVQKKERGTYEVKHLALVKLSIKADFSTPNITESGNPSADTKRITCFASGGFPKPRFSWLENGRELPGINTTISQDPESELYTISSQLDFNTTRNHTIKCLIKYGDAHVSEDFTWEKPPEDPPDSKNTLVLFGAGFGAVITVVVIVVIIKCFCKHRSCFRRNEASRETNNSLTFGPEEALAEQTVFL
UniProt Q91VN0, residues 31-1614: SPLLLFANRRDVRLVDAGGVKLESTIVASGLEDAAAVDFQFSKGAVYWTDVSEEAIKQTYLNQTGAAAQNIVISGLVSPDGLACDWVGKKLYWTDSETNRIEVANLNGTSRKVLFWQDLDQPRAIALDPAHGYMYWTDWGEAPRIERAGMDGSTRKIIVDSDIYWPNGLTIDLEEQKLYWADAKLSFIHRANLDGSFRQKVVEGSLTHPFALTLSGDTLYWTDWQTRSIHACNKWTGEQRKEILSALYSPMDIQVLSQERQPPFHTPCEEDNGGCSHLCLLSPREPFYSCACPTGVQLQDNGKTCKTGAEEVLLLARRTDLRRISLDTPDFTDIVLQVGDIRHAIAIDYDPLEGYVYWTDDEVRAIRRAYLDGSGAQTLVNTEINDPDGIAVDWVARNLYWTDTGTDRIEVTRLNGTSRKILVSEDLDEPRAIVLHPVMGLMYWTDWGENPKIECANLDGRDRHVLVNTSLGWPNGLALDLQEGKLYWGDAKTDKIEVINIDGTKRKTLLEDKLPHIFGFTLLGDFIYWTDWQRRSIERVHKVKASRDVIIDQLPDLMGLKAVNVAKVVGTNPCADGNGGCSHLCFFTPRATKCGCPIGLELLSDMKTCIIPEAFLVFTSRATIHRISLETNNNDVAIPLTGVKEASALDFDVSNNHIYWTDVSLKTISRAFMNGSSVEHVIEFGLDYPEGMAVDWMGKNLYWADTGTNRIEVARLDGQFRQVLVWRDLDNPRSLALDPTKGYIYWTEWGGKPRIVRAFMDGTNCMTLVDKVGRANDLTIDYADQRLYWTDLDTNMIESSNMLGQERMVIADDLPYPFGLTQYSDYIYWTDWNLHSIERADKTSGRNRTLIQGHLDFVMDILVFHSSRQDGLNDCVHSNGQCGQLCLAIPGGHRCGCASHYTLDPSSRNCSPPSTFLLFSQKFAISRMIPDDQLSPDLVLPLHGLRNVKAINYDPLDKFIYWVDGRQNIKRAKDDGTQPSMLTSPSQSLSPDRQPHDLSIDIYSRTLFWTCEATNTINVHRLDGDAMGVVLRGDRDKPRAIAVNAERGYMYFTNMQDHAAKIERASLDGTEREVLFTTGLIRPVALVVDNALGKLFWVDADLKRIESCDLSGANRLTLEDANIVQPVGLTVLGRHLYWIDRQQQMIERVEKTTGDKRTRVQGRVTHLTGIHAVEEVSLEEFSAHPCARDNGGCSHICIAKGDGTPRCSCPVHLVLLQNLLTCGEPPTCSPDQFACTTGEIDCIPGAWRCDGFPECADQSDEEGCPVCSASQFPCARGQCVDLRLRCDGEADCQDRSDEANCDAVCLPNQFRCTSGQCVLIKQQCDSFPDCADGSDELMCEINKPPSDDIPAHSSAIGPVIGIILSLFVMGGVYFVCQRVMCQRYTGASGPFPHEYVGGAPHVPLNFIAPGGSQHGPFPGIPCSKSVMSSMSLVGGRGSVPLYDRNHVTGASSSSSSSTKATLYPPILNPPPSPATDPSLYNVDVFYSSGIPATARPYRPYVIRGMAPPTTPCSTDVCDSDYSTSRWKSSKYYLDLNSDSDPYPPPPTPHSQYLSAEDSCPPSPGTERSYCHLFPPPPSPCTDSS

Row | binding [1] | binding [2] | binding [3] | binding [4] | binding [5] | binding [6] | binding [7] | binding [8] | Substance
1 | binds | binds | binds | binds | – | – | – | – | LRP5, endogenous (from UniProt Q91VN0 31-1614) (receptor)
2 | – | – | – | – | binds | binds | binds | binds | B7-1 (Flag tagged), expressed in 293 T cells (from UniProt Q00609 38-306)

— publication PMC9750974
